According to PubChem BioAssay AID901 (National Center for Advancing Translational Sciences (NCATS), 2007):
The list shows a part of the results. The main result of the screen is listed elsewhere. These columns were measured beside it and carry no call. Most of these compounds were active or inconclusive in the main read-out, so they are no random draw. Words in brackets tell the shape of the fitted curve; partial curves, single points and poor fits give uncertain potencies.

assay: qHTS Assay for Identifying the Cell-Membrane Permeable IMPase Inhibitors; details: CHO-M1 cells, IP1 accumulation, HTRF TR-FRET ratio; measured here: donor channel 620 nm AC50

| SMILES | AC50 |
| --- | --- |
| Cc1c(Br)c(C(F)(F)F)nn1CC(=O)N1CCCC1 | 5.01 µM [rising, single point] |
| CN(CCNC(=O)c1ccc(N2CCCC2=O)cc1)CCc1ccccc1 | 31.6 µM [falling, single point] |
| Cc1ccc(C(=O)C2=C(O)C(=O)N(Cc3ccccc3)C2c2cccnc2)o1 (stereo not drawn) | 12.6 µM [rising, partial curve] |
| Cc1ccc2nc(SCC(=O)NCc3ccco3)c(C#N)cc2c1 | 31.6 µM [rising, single point] |
| CS(=O)(=O)N(CC(O)CON=C1c2ccccc2-c2ccccc21)c1ccc(F)cc1 (stereo not drawn) | 0.158 µM [falling, full curve, poor fit] |
| CCn1c(CSc2nc(C)cc(C)n2)nnc1SCC(=O)N1CCCc2ccccc21 | 0.0501 µM [falling, full curve, poor fit] |
| Cc1nnsc1C(=O)Nc1ccc(Cl)cc1Cl | 0.2 µM [falling, full curve] |
| Cc1ccc(C)c(N(C)C(=O)Cc2c(C(=O)O)[nH]c3ccc(Cl)cc23)c1 | 0.00316 µM [falling, full curve, poor fit] |
| CN1C(=O)CC(N2CCN(CC(N)=O)CC2)C1=O (stereo not drawn) | 0.794 µM [rising, full curve] |
| N#CC(c1cccc(Cl)c1)c1ccc2c(C(F)(F)F)cc(C(F)(F)F)nc2n1 (stereo not drawn) | 20 µM [falling, partial curve, poor fit] |
| CCCC12CN3CC(CCC)(CN(C1)C3C(O)C(O)C(O)CO)C2=O (stereo not drawn) | 3.16 µM [rising, single point] |
| Cc1ccc(S(=O)(=O)N(C)CC(=O)Nc2nc3ccccc3s2)cc1 | 35.5 µM [falling, single point] |
| O=C1CC(N2CCN(c3ccccc3F)CC2)C(=O)N1c1ccc2c(c1)OCCO2 (stereo not drawn) | 0.794 µM [falling, full curve, poor fit] |
| Cc1cnc(C(=O)Nc2nnc(C(C)C)s2)cn1 | 31.6 µM [falling, single point] |
| COc1ccc(S(=O)(=O)N(CCCN2CCOCC2)Cc2ccc(OC)c(OC)c2)cc1 | 0.126 µM [falling, full curve] |
| CC(=O)c1sc(NC(=O)C(C)C)nc1C | 12.6 µM [rising, partial curve] |
| Nc1c(C(=O)NCc2ccc(Cl)cc2)sc2nc(-c3ccc(F)cc3)ccc12 | 0.01 µM [rising, full curve] |
| Cc1ccc(-c2cc(C(=O)Nc3ccccc3C)c3ccccc3n2)o1 | 0.2 µM [rising, single point] |
| CC1CC(=O)c2cnc(N)nc2C1 (stereo not drawn) | 3.16 µM [falling, single point] |
| CCCN(CCC)C(=O)CSc1nc2ccsc2c(=O)n1NC(=O)c1ccccc1 | 0.0126 µM [rising, full curve, poor fit] |
| CN1CCN(CC(=O)Nc2ccc(Oc3ccccc3)cc2)CC1 | 6.31 µM [falling, full curve] |
| COc1cccc(NC(=O)N[C@@H](Cc2ccccc2)C(=O)O)c1 | 1 µM [falling, single point] |

Some of the entries so far, comma-delimited.
SMILES,AC50
O=C1CC(N2CCN(c3ccccc3F)CC2)C(=O)N1c1ccc2c(c1)OCCO2 (stereo not drawn),"0.794 µM [falling, full curve, poor fit]"
COc1cccc(NC(=O)N[C@@H](Cc2ccccc2)C(=O)O)c1,"1 µM [falling, single point]"

Further records.

| SMILES | AC50 |
| --- | --- |
| Cn1c2c(c(=O)n(C)c1=O)C(NC(=O)c1cccs1)(C(F)(F)F)C(=O)N2 (stereo not drawn) | 0.0794 µM [falling, full curve, poor fit] |
| COc1cc(SC)ccc1C(=O)NCCOc1ccc(Cl)cc1 | 10 µM [rising, partial curve] |
| O=c1c2c(-c3cccs3)csc2[nH]c(=S)n1-c1ccccc1 | 12.6 µM [rising, partial curve] |
| C=CCn1c(CNc2ccccc2)nnc1SCC(=O)N/N=C/c1ccc(O)cc1O | 25.1 µM [falling, partial curve, poor fit] |
| COc1ccc(C(C#N)N2CCOCC2)cc1 (stereo not drawn) | 6.31 µM [falling, single point] |
| CCc1ccc2c(c1)C(C)=CC(C)(C)N2 | 3.16 µM [rising, partial curve, poor fit] |
| O=C(O)CCc1ccc(-c2ccc(Cl)cc2)n1CC(=O)O | 0.01 µM [rising, full curve, poor fit] |
| O=c1[nH]c(=S)c2c(n1-c1ccccc1)CCC2 | 12.6 µM [rising, partial curve] |
| CNC(=O)CN(c1ccc(OC)cc1)S(=O)(=O)c1ccc(F)cc1 | 0.2 µM [falling, full curve, poor fit] |
| CCCCn1c(=O)cc(O)c2ccccc21 | 0.794 µM [falling, full curve] |
| CCN(CC)CCOc1cc2c(nn1)Oc1ccccc1N2C | 0.0251 µM [rising, full curve, poor fit] |
| COc1ccc(-c2nnc(N(C)C(=O)c3cccnc3)s2)cc1 | 12.6 µM [falling, single point] |
| Cn1c(=O)cc(SCC(=O)NCCCN2CCOCC2)c2ccc(Cl)cc21 | 25.1 µM [rising, single point] |
| COC(=O)CNc1n[nH]c(=S)[nH]c1=O | 10 µM [rising, partial curve] |
| COc1ccc(Br)cc1C(=O)Nc1ccc2oc(-c3cccnc3)nc2c1 | 0.355 µM [falling, partial curve, poor fit] |
| c1ccc2c(c1)Cn1nc(Cc3nc4c(s3)CCCC4)nc1-2 | 0.0631 µM [rising, full curve, poor fit] |
| O=C(NCc1nnc(SCC(=O)N2CCCC2)o1)c1ccccc1F | 2 µM [falling, full curve, poor fit] |
| O=C(c1ccccc1)c1nn(-c2ccccc2)c2nnc(Cc3ccccc3)c(=O)n12 | 1.58 µM [falling, partial curve] |
| C=C(C)Cn1c(SCC(=O)Nc2ccccc2C)nc2sc3c(c2c1=O)CCCC3 | 10 µM [rising, single point] |
| COc1cccc(-n2c(C)nnc2SCC#N)c1 | 3.16 µM [falling, partial curve, poor fit] |
| COc1cccc(OC)c1C(=O)N1CCN(S(=O)(=O)c2ccc(C)cc2)CC1 | 5.62 µM [falling, single point] |
